Data as given in PubChem BioAssay AID652243 (Drosophila RNAi Screening Center, 2013)
Test: 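Fly genes required for human androgen receptor driven transcription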 (primary screen). Cell system: Drosophila S2R+ cells. Reagent: long dsRNA against Drosophila genes. Timing: 72 h (48 h, then 24 h hormone). Treatment: synthetic androgen R1881 at 10 nM for 24 h. Measurement: 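Per-well raw luminescence of the androgen-driven firefly reporter and of the Renilla control, two replicates each, without normalisation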. Scale: firefly reporter light: higher = more light from androgen-responsive reporter; Renilla control light: higher = more constitutive control signal (cell number, transfection). Rule for the call: 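Across duplicate plates, a knock-down whose log firefly/Renilla ratio shifted a set fold down or up from the GFP/LacZ control mean was a hit; the downward cut appears as both 1.5 and 3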. Calls: active = hit: reporter lowered or raised; inactive = no hit.
The screen tested about 24,000 reagents; this is an unselected part of those with a known target gene and a result. Of all reagents, 246 (1%) are marked active. 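Plates not normalised; calls are printed but the firefly/Renilla ratio behind them is not deposited; fold cut for lowering reported inconsistently.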 Raw values are not corrected between plates. A plus sign joins genes that one reagent is predicted to hit. Not given: the amount of reagent.

no.	gene knocked down	amplicon	firefly reporter light, replicate 1	firefly reporter light, replicate 2	Renilla control light, replicate 1	Renilla control light, replicate 2	outcome
1	CG15740	DRSC23079	4.87e5	5.57e5	1.48e6	1.54e6	inactive
2	CG15740	DRSC28880	3.68e5	4.15e5	1.57e6	1.65e6	inactive
3	CG15740	DRSC38996	7.66e5	7.57e5	1.69e6	1.93e6	inactive
4	Amy-p	DRSC06786	1.83e5	2.47e5	1.90e6	1.90e6	inactive
5	sicily	DRSC19704	2.99e5	2.12e5	3.74e6	4.29e6	active
6	CG5532	DRSC04509	3.77e5	4.89e5	3.27e6	4.30e6	inactive
7	Nepl18	DRSC14879	2.45e5	1.81e5	2.86e6	3.16e6	inactive
8	Spt	DRSC07123	2.96e5	3.92e5	2.13e6	2.41e6	inactive
9	Spt	DRSC29487	5.49e5	3.48e5	8.37e5	8.37e5	inactive
10	CG15370	DRSC23277	5.88e5	6.01e5	1.34e6	1.59e6	inactive
11	CG15370	DRSC29703	4.20e5	3.83e5	1.81e6	1.58e6	inactive
12	CG4572	DRSC15603	51141	48189	3.75e5	3.56e5	inactive
13	CG11406	DRSC04010	1.24e5	1.81e5	99469	1.43e5	inactive
14	CG11406	DRSC04108	3.18e5	4.35e5	2.35e6	2.64e6	inactive
15	CG6055	DRSC02923	2.85e5	3.32e5	2.47e6	1.73e6	inactive
16	CG13887	DRSC08357	9.23e5	1.15e6	1.46e6	1.63e6	inactive
17	HDAC4	DRSC19780	3.69e5	3.52e5	3.60e6	3.83e6	inactive
18	HDAC4	DRSC25237	87642	27316	4.15e5	4.87e5	active
19	Ir52c	DRSC21801	4.76e5	4.81e5	1.67e6	2.34e6	inactive
20	Ir52c	DRSC27570	2.63e5	2.70e5	3.88e5	4.71e5	inactive

Ordered by “firefly reporter light, replicate 2” (low to high): some entries from above.
gene knocked down	amplicon	firefly reporter light, replicate 1	firefly reporter light, replicate 2	Renilla control light, replicate 1	Renilla control light, replicate 2	outcome
CG4572	DRSC15603	51141	48189	3.75e5	3.56e5	inactive
Nepl18	DRSC14879	2.45e5	1.81e5	2.86e6	3.16e6	inactive
sicily	DRSC19704	2.99e5	2.12e5	3.74e6	4.29e6	active
Amy-p	DRSC06786	1.83e5	2.47e5	1.90e6	1.90e6	inactive
Spt	DRSC29487	5.49e5	3.48e5	8.37e5	8.37e5	inactive
CG15370	DRSC29703	4.20e5	3.83e5	1.81e6	1.58e6	inactive
Spt	DRSC07123	2.96e5	3.92e5	2.13e6	2.41e6	inactive
CG5532	DRSC04509	3.77e5	4.89e5	3.27e6	4.30e6	inactive
CG15370	DRSC23277	5.88e5	6.01e5	1.34e6	1.59e6	inactive

Next records:
no.	gene knocked down	amplicon	firefly reporter light, replicate 1	firefly reporter light, replicate 2	Renilla control light, replicate 1	Renilla control light, replicate 2	outcome
21	Obp56d	DRSC06064	71836	96195	7.90e5	1.20e6	inactive
22	unc	DRSC20511	1.84e5	1.62e5	8.36e5	4.59e5	inactive
23	unc	DRSC27962	3.98e5	3.11e5	1.54e6	9.15e5	inactive
24	sens-2	DRSC02613	2.39e5	3.25e5	1.98e6	1.53e6	inactive
25	sens-2	DRSC25026	7.58e5	5.49e5	8.31e5	6.70e5	inactive
26	CG33191 + Pif1B	DRSC12706	1.18e5	49764	1.72e5	1.38e5	inactive
27	spn-B	DRSC17063	1.13e5	1.28e5	2.50e6	2.01e6	inactive
28	spn-B	DRSC26699	3.30e5	4.04e5	7.98e5	7.27e5	inactive
29	CG15124	DRSC06546	57637	1.07e5	8.86e5	1.45e6	inactive
30	Rab11	DRSC16809	2.00e5	2.42e5	2.66e6	2.67e6	inactive
31	Rab11	DRSC23620	6.31e5	3.81e5	4.40e5	4.51e5	inactive
32	snama	DRSC04049	5.59e5	4.70e5	1.60e6	1.66e6	inactive
33	snama	DRSC28914	7.70e5	8.35e5	1.55e6	1.45e6	inactive
34	Andorra	DRSC19475	6.07e5	6.92e5	2.70e6	3.24e6	inactive
35	Myo10A	DRSC19834	5.00e5	5.98e5	3.24e6	3.25e6	inactive
36	Myo10A	DRSC19837	4.77e5	4.17e5	3.27e6	3.82e6	inactive
37	Myo10A	DRSC23140	4.12e5	4.05e5	1.36e6	1.55e6	inactive
38	Myo10A	DRSC27994	6.36e5	4.63e5	2.18e6	1.40e6	inactive
39	key	DRSC04285	1.06e6	6.80e5	1.29e6	1.24e6	inactive
40	key	DRSC36978					inactive
41	CG30323	DRSC07656	66518	66960	1.38e6	1.38e6	inactive
42	Amy-d	DRSC05919	1.73e5	1.88e5	1.74e6	1.74e6	inactive
43	egh	DRSC18771	2.34e5	2.58e5	1.75e6	2.37e6	inactive
44	egh	DRSC29898	7.05e5	7.47e5	1.17e6	1.44e6	inactive
45	RpL18	DRSC11016	1.62e5	1.31e5	1.14e6	1.30e6	inactive
46	RpL18	DRSC22323	3.71e5	4.79e5	1.54e6	1.19e6	inactive
47	beta4GalNAcTB	DRSC14869	2.04e5	2.11e5	2.59e6	2.75e6	inactive
48	Ugt35C1	DRSC16080	16018	19602	3.16e5	3.68e5	inactive
49	Ugt35C1	DRSC28306	3.30e5	6.42e5	1.02e6	1.91e6	inactive
50	lncRNA:CR43372	DRSC15041	3.09e5	3.23e5	3.50e6	3.56e6	inactive
51	CG15545	DRSC15083	2.10e5	1.90e5	1.91e6	2.92e6	inactive
52	CG15545	DRSC29523	3.26e5	2.96e5	8.38e5	8.38e5	inactive
53	SecS	DRSC12222	82765	94783	2.36e6	1.40e6	inactive
54	CG31870	DRSC21681	6.80e5	6.89e5	2.56e6	2.26e6	inactive
55	CG31870	DRSC27838	4.44e5	4.79e5	5.75e5	1.03e6	inactive
56	Ccz1	DRSC08439	1.29e5	1.17e5	8.13e5	1.02e6	inactive
57	Pus1	DRSC15548	2.52e5	2.87e5	4.43e6	4.23e6	inactive
58	Pus1	DRSC27461	2.21e5	2.42e5	5.83e5	6.80e5	inactive
